# Laboratory results taken from the supplement of paper PMC10470496.
# Counter-ions that a name gives are not always drawn. The list shows a part of the results. Many values rest on one well or one pass, so single values are uncertain.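 The three strains are clinical Candida auris isolates from the CDC resistance isolate bank, from clades III, IV and I, grown in RPMI-1640 at 35°C. Growth is background-corrected OD600 relative to vehicle-only wells on the same plate; a hit meant over 50% inhibition in at least two strains plus a plate-corrected B-score above 0.1.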
# Legend:
# Test in all cases: growth relative to vehicle control (OD600 ratio) (fraction); higher = less inhibition
# Details in all cases: 24 h
# C. auris AR-384 = system: C. auris AR-384
# C. auris AR-386 = system: C. auris AR-386
# C. auris AR-387 = system: C. auris AR-387
SMILES,growth (C. auris AR-384; 1 µM),growth (C. auris AR-384; 10 µM),growth (C. auris AR-386; 1 µM),growth (C. auris AR-386; 10 µM),growth (C. auris AR-387; 1 µM),growth (C. auris AR-387; 10 µM)
COC(=O)C1=C(C)NC(C)=C(C(=O)OC)C1c1ccccc1[N+](=O)[O-] [Nifedipine],0.65,0.57,0.88,0.82,0.91,1.03
CC(=O)OCC(=O)[C@@]12OC(C)(C)O[C@@H]1C[C@H]1[C@@H]3C[C@H](F)C4=CC(=O)C=C[C@]4(C)[C@@]3(F)[C@@H](O)C[C@@]12C [Fluocinonide],1.14,1.2,1.33,1.12,1.18,1.02
COC(=O)N[C@H](C(=O)N1CCC[C@H]1c1ncc(-c2ccc(-c3ccc(-c4cnc([C@@H]5CCCN5C(=O)[C@@H](NC(=O)OC)C(C)C)[nH]4)cc3)cc2)[nH]1)C(C)C,0.85,1.01,0.79,0.87,0.86,0.96
[O-][n+]1cccc(CO)c1 [Mepiroxol],0.87,0.68,1.01,0.54,0.62,0.54
C[C@]12CCC(=O)C=C1CC[C@@H]1[C@@H]2[C@@H](O)C[C@@]2(C)[C@H]1CC[C@]2(O)C(=O)CO [Hydrocortisone],0.99,1.35,1.35,1.45,1.12,1.31
CC1=C(/C=C/C(C)=C/C=C/C(C)=C/C(=O)O)C(C)(C)CCC1 [Tretinoin],0.83,0.52,1.07,1.06,0.79,1.05
CCN(CC)CCOC(=O)C(c1ccccc1)c1ccccc1 [Adiphenine HCl],0.98,0.91,1.01,1.18,1.02,1.26
CC(=O)NC[C@H]1CN(c2ccc(N3CCOCC3)c(F)c2)C(=O)O1 [Linezolid],0.87,0.81,1.17,0.77,0.9,0.84
CS(=O)(=O)n1cc2c(n1)CN([C@H]1CO[C@H](c3cc(F)ccc3F)[C@@H](N)C1)C2 [Omarigliptin (MK-3102)],1.13,1.34,1.14,1.22,1.13,1.12
O=c1[nH]c(=O)n([C@H]2C[C@H](O)[C@@H](CO)O2)cc1C(F)(F)F [Trifluridine],0.88,0.89,0.97,0.81,0.95,0.86
"CN1CCN(c2ccc3nc(-c4c(N)c5c(F)cccc5[nH]c4=O)[nH]c3c2)CC1 [Dovitinib (TKI-258, CHIR-258)]",0.69,0.59,0.9,0.88,0.78,0.68
CS(=O)(=O)c1ccc(C(=O)Nc2ccc(Cl)c(-c3ccccn3)c2)c(Cl)c1 [Vismodegib (GDC-0449)],0.87,1.25,1.2,0.83,0.96,1.12
Cc1cccc(Nc2ccncc2S(=O)(=O)NC(=O)NC(C)C)c1 [Torsemide],1.03,1.06,1.41,1.47,1.6,1.33
COC(=O)/C=C/C(=O)OC [Dimethyl Fumarate],0.88,0.88,0.9,0.57,0.68,0.68
C[C@H](CS)C(=O)N1CCC[C@H]1C(=O)O [Captopril],1.29,1.06,1.16,0.7,1.12,0.9
O=C(Cn1ccnc1[N+](=O)[O-])NCc1ccccc1 [Benznidazole],0.87,0.97,0.81,1.1,0.94,1.07
COC(=O)[C@]12CCC(C)(C)C[C@H]1[C@H]1C(=O)C=C3[C@@]4(C)C=C(C#N)C(=O)C(C)(C)[C@@H]4CC[C@@]3(C)[C@]1(C)CC2 [Bardoxolone Methyl],1.3,1.24,1.27,0.93,1.04,1.11
CCN(C(=O)c1c(O)c2c(Cl)cccc2n(C)c1=O)c1ccccc1 [Laquinimod],1.03,0.89,0.71,0.9,0.6,0.99
CC[C@@H]1/C=C(\C)C[C@H](C)C[C@H](OC)[C@H]2O[C@@](O)(C(=O)C(=O)N3CCCC[C@H]3C(=O)O[C@H](/C(C)=C/[C@@H]3CC[C@H](Cl)[C@H](OC)C3)[C@H](C)[C@@H](O)CC1=O)[C@H](C)C[C@@H]2OC [Pimecrolimus],1.21,1.63,1.18,1.11,1.18,1.47
CCc1cc(/C(C)=N/OCc2ccc(C3CCCCC3)c(C(F)(F)F)c2)ccc1CN1CC(C(=O)O)C1 [BAF312 (Siponimod)],0.94,0.82,0.68,0.75,0.63,0.96
CCOC(=O)C1=C(C)NC(C)=C(C(=O)OC)C1c1cccc([N+](=O)[O-])c1 (stereo not given) [Nitrendipine],0.91,1.13,1.13,0.71,0.59,0.84
CN1CCN(C(c2ccccc2)c2ccccc2)CC1 [Cyclizine 2HCl],0.96,0.89,1.2,0.52,1.03,0.69
N#Cc1ccc2[nH]cc(CCCCN3CCN(c4ccc5oc(C(N)=O)cc5c4)CC3)c2c1 [Vilazodone HCl],1.1,0.9,0.89,0.94,0.9,0.95

# A different layout for part of the listing above:
SMILES	growth (C. auris AR-384; 1 µM)	growth (C. auris AR-384; 10 µM)	growth (C. auris AR-386; 1 µM)	growth (C. auris AR-386; 10 µM)	growth (C. auris AR-387; 1 µM)	growth (C. auris AR-387; 10 µM)
O=c1[nH]c(=O)n([C@H]2C[C@H](O)[C@@H](CO)O2)cc1C(F)(F)F [Trifluridine]	0.88	0.89	0.97	0.81	0.95	0.86
CN1CCN(c2ccc3nc(-c4c(N)c5c(F)cccc5[nH]c4=O)[nH]c3c2)CC1 [Dovitinib (TKI-258, CHIR-258)]	0.69	0.59	0.9	0.88	0.78	0.68

# Next entries.

SMILES,growth (C. auris AR-384; 1 µM),growth (C. auris AR-384; 10 µM),growth (C. auris AR-386; 1 µM),growth (C. auris AR-386; 10 µM),growth (C. auris AR-387; 1 µM),growth (C. auris AR-387; 10 µM)
CC(C)(C(=O)O)c1ccc(C(O)CCCN2CCC(C(O)(c3ccccc3)c3ccccc3)CC2)cc1 (stereo not given) [Fexofenadine HCl],0.9,0.86,0.57,0.68,0.83,0.87
O=C1CN(/N=C/c2ccc(-c3ccc([N+](=O)[O-])cc3)o2)C(=O)N1 [Dantrolene sodium hemiheptahydrate],0.81,0.76,0.89,1,0.93,1.03
O=C(NS(=O)(=O)c1ccc(Br)s1)c1ccc(Cl)cc1Cl [Tasisulam],1.06,1.31,1.05,1.12,0.9,0.97
CCN(CC)C(=S)SSC(=S)N(CC)CC [Disulfiram],0.9,0.82,1.04,0.24,1.01,0.05
Clc1ccc(C(Cn2ccnc2)OCc2csc3c(Cl)cccc23)c(Cl)c1 (stereo not given) [Sertaconazole nitrate],0.49,0.29,0.67,0.74,0.05,0.02
CS(=O)(=O)Nc1ccc([N+](=O)[O-])cc1Oc1ccccc1 [Nimesulide],0.85,0.91,0.82,0.58,0.71,0.8
Cc1cc(-n2c(=O)[nH]c(=O)n(C)c2=O)ccc1Oc1ccc(SC(F)(F)F)cc1 [Toltrazuril],0.89,0.86,0.6,0.64,0.76,0.76
O=C(O)Cc1ccccc1Nc1c(Cl)cccc1Cl [Diclofenac Diethylamine],0.84,0.76,0.86,0.55,0.58,0.57
CCOC(=O)CC(=O)N1CCSC1COc1ccccc1OC (stereo not given) [Moguisteine],1.09,1.28,1.34,1.29,1.36,1.18
CCCOc1ccc(C(=O)OCCN(CC)CC)cc1N [Proparacaine HCl],0.96,0.93,0.82,1.21,0.92,0.77
CC(C)(Oc1ccc(Cl)cc1)C(=O)O [Clofibric Acid],1.12,0.93,1.1,0.85,0.87,0.87
CNCC[C@@H](Oc1ccccc1C)c1ccccc1 [Atomoxetine HCl],1.02,0.89,0.59,0.63,0.64,0.95
O=C1CC2(CCCC2)CC(=O)N1CCCCN1CCN(c2ncccn2)CC1 [Buspirone HCl],0.79,0.58,0.84,0.7,0.81,0.78
COc1cc2nccc(Oc3ccc(NC(=O)C4(C(=O)Nc5ccc(F)cc5)CC4)cc3)c2cc1OC [Cabozantinib malate (XL184)],0.75,0.78,0.79,0.85,0.74,0.76
CCCN1CCCC[C@H]1C(=O)Nc1c(C)cccc1C [Ropivacaine HCl],0.94,0.85,0.82,0.95,0.77,0.89
CC(=O)O[C@@]12CO[C@@H]1C[C@H](O)[C@@]1(C)C(=O)[C@H](O)C3=C(C)[C@@H](OC(=O)[C@H](O)[C@@H](NC(=O)OC(C)(C)C)c4ccccc4)C[C@@](O)([C@@H](OC(=O)c4ccccc4)[C@H]21)C3(C)C [Docetaxel],0.68,0.66,0.84,0.79,1.06,0.57
O=C(c1ccc(OCCN2CCCCC2)cc1)c1c(-c2ccc(O)cc2)sc2cc(O)ccc12 [Raloxifene HCl],0.75,0.85,0.82,0.88,0.91,0.9
CC[C@@]1(O)C(=O)OCc2c1cc1n(c2=O)Cc2cc3c(CN(C)C)c(O)ccc3nc2-1 [Topotecan HCl],1.2,0.88,0.82,1.07,1.15,1.2
COc1ccc(C[C@@H]2c3cc(OC)c(OC)cc3CC[N@+]2(C)CCC(=O)OCCCCCOC(=O)CC[N@@+]2(C)CCc3cc(OC)c(OC)cc3[C@H]2Cc2ccc(OC)c(OC)c2)cc1OC [Cisatracurium Besylate],0.78,0.87,0.65,0.84,0.82,0.75
CN(C)C/C=C/C(=O)Nc1cc2c(Nc3ccc(F)c(Cl)c3)ncnc2cc1O[C@H]1CCOC1 [Afatinib (BIBW2992)],0.72,0.7,0.9,0.58,0.9,0.97
Cc1c(C(N)=O)cc([N+](=O)[O-])cc1[N+](=O)[O-] [Dinitolmide],0.94,0.97,0.79,0.9,0.7,1.13
C[C@@H](O)[C@H]1C(=O)N2C(C(=O)OCOC(=O)C(C)(C)C)=C(SC3CN(C4=NCCS4)C3)[C@H](C)[C@H]12 [Tebipenem Pivoxil],0.88,0.64,0.66,0.83,0.69,0.71
